# Test results from paper doi:10.1101/2024.11.26.625466.
# Protein sequences, listed by entry. Tags and fused reporters are not part of them.
# UniProt P23297: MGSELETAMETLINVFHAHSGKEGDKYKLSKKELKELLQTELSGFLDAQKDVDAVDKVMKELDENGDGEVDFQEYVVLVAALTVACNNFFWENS
# These are yes or no findings as the source states them, for the method shown.
# B1: S100A8 (protein, UniProt P05109 1-93)
# chain: MLTELEKALNSIIDVYHKYSLIKGNFHAVYRDDLKKLLETECPQYIRKKGADVWFKELDINTDGAVNFQEFLILVIKMGVAAHKKSHEESHKE
# Target: S100A1, spin-labelled with MTSSL (UniProt P23297)
# Assay: DEER
binder,measurement,value
B1,binding,no binding
